We go through one sequence from paper PMC11980398.

By UniProt entry, the sequences of proteins in these tests, tags left out. Where a name states a change or a piece, a line headed by the entry shows the natural chain unless it says otherwise.
UniProt P36879: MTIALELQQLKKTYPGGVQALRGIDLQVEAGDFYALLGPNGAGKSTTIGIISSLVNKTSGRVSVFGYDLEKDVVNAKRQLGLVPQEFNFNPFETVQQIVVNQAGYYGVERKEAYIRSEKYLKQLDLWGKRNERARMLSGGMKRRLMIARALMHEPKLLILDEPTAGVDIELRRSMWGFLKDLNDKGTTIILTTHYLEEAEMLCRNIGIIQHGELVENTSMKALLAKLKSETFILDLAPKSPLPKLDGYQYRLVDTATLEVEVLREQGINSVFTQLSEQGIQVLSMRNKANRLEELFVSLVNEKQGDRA

The target in this series is YadG (putative ABC transporter ATP-binding protein) (Escherichia coli J53) (UniProt P36879). Description: pull-down, anti-His Western blot. Conditions: 5 mM Mg2+; Bio-11-UTP incorporated; pull-down: 4 C, 2 h, yeast tRNA; recombinant protein; residues 1-308; protein details: N-terminal His6 (pET28a, NdeI/HindIII); label: biotin (internal); probe letters rebuilt from the primers and the genome.

For at least one entry, the source does not settle the construct or the ends of the probe.

On to “GGGGAUGAAGAUUACCGCCGGCGCAUUCUGACCCAGCUUAAUCGGGGAGAAAGUCGCCAUGCCGUUGCCAGAGCCAUCUGUCACGGUCAAAAAGGUGAGAUAAGAAAACGAUAUACCGACGGUCAGGAAGAUCAACUGGGCACACUGGGGCUGGUCACUAACGCCGUCGUGUUAUGGAACACUAUUUAUAUGCAGGCAGCCCUGGAUCAUCUCCGGGCGCAGGGUGAAACACUGAAUGAUGAAGAUAUCGCACGCCUCUCCCCGCUUUGCCACGGACAUAUCAAUAUGCUCGGCCAUUAUUCCUUCACGCUGGCAGAACUGGUGACCAAAGGACAUCUGAGACCAGGAUCCCG [biotinylated stnpA RNA]”, for which the binding result is “binds”.
